Values from PubChem BioAssay AID743454 (Peter MacCallum Cancer Centre, 2014)
Shown is one part, drawn at random, of about 18,000 reagents tested. In the full data, 450 (2.5%) were called active. 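Single biological run; no consistent viability z cut-off exists, so the class columns, not z-scores, define the calls.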 Entries without a mark were called inactive.

Purpose: 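Search for knock-downs that restore vorinostat killing in resistant colon cancer cells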 (primary screen)
Cells: human HCT116-VR colon cancer cells, selected for vorinostat resistance
Knock-down reagent: siRNA pool against human genes, 40 nM siRNA pool
Time to read-out: vorinostat for 24 h, read-out about 72 h after transfection
Conditions: vorinostat at 2.5 µM final
Read-out: 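Cell viability by CellTiter-Fluor and caspase 3/7 activity by luminescence, each scaled to mock wells per plate, duplicates averaged, then robust z-scored over all plates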
Scale: viability robust z-score: higher = more viable cells than screen typical; caspase robust z-score: higher = more caspase 3/7 activity than screen typical
Active means: 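Hits are knock-downs in viability class RV1/RV2 or caspase class CA1/CA2, excluding ones that killed cells in the no-drug cell-count arm; hits then retested with single siRNAs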

Target gene	viability hit class	caspase hit class	viability robust z-score	caspase robust z-score
MPHOSPH6	no change	no change	0.6	-0.23
SUMO3	no change	no change	0.59	-0.42
PSMD8	no change	no change	-4.75	0.32
PIK3R3	no change	no change	0.4	-0.5
SRSF10	no change	no change	0.14	-0.45
UNC13A	no change	no change	-0.51	0.64
SPIDR	no change	no change	0.17	2.13
IFT52	no change	no change	-0.58	0.04
HLA-DRB1	no change	no change	0.18	-0.38
OR4C12	no change	no change	1.53	-0.68
GCOM1	no change (active)	CA1 (caspase activation)	-0.92	5.62
S100A11	no change	no change	1.34	0.53
ZXDB	no change	no change	-0.18	-0.6
PRPF19	no change	no change	-0.73	1.03
H4C1	no change	no change	0.02	0.34
SLC9D1	no change	no change	-0.12	1.61
CPNE6	no change	no change	-0.22	-0.12
SNURF	no change	no change	0.54	-0.36
ZNF300	no change	no change	-1.44	-0.54
PALS1	no change	no change	1.67	-0.74
FUOM	no change	no change	0.12	4.92
CYSRT1	no change	no change	0.58	-0.8
PAQR3	no change	no change	1.62	-0.38
STEEP1	no change	no change	-0.03	0.52
TLR1	no change	no change	0.73	-0.01
CHMP5	no change	no change	0.78	-0.15
MROH8	no change	no change	0.69	-0.48
PLEKHF1	no change	no change	1.42	1.03
CCDC28B	no change	no change	1.29	-0.84
TENT5C	no change	no change	1.06	0.08
ALOX15B	no change	no change	-0.44	-0.26
LCMT2	no change	no change	0.8	2.04
REG1B	no change	no change	-0.1	-0.08
NKX6-1	no change	no change	1.44	-0.1
CTSE	no change	no change	-0.82	0.99
PCGF2	no change	no change	0.8	-0.99
HOXA1	no change	no change	-0.48	-0.22
RAP2C	no change	no change	-0.58	2.42
SIM1	no change	no change	0.58	1.52
TYK2	no change	no change	-2.06	3.19
ACSL6	no change	no change	0.39	-0.01
AQP1	no change	no change	0.34	0.2
MARCHF3	no change	no change	0.75	0.09
COL10A1	no change	no change	-2.12	0.08
ABHD10	no change	no change	0.36	3.13
PLEKHM1	no change	no change	0.12	3.12
CPNE1	no change	no change	0.53	-0.92
MIDEAS	no change (active)	CA1 (caspase activation)	-0.23	7.98
OR5K3	no change	no change	0.8	-1.08
HMHB1	no change	no change	-0.32	-1.55
FOXN2	no change	no change	-0.04	0.3
PAPOLA	no change	no change	1.22	1.72
CNGA1	RV2 (reduced viability) (active)	no change	-4.02	1.06
AJAP1	no change	no change	-0.09	-0.76
GDPD2	no change	no change	1.04	-0.66
ACSS1	no change	no change	-0.85	-0.99
QARS1	no change	no change	-2.86	1.14

4 entries from above, sorted by “caspase robust z-score”, descending:
Target gene	viability hit class	caspase hit class	viability robust z-score	caspase robust z-score
CTSE	no change	no change	-0.82	0.99
NKX6-1	no change	no change	1.44	-0.1
HOXA1	no change	no change	-0.48	-0.22
PCGF2	no change	no change	0.8	-0.99
